PubChem BioAssay AID1224830 – NIAID | 2016
The deposit covers about 18,000 reagents; shown is an unselected part. About 2,900 of them (16%) count as active. 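Calls are made per well; low scores hint the gene aids the LPS response, high scores that it dampens it.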 Entries without a mark were called inactive. Repeated entries: four replicate wells of each siRNA pool.

Aim: 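Host factors that control LPS-induced TNF expression in human macrophages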 (primary screen)
Cells: human THP-1 monocytic leukaemia cells, TNF dual-luciferase reporter clone, PMA-differentiated to macrophage-like cells
Knock-down reagent: siRNA pool against human genes, 50 nM
Duration: LPS for 4 h, given about 3 days after siRNA transfection
Conditions: bacterial LPS (TLR4 ligand), 10 ng/ml
Measurement: 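TNF firefly reporter luminescence divided by renilla, normalised to the plate median, then turned into a robust z-score for each replicate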
Direction: TNF reporter robust z-score: higher = stronger TNF reporter response to LPS
Active means: 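Each well counts as active if its z-score is over 2.8 or under -1.5; controls are left without a call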

Against SLC7A9, the entry reads TNF reporter robust z-score -1.32. SLC7A9 gave TNF reporter robust z-score -1. Against SLC7A9 the deposit lists TNF reporter robust z-score -1.14. SLC7A9 showed TNF reporter robust z-score 0.19. DSG1 gave TNF reporter robust z-score 1.85. For DSG1, the entry reads TNF reporter robust z-score 1.67.

Knock-down of DSG1 came out at: TNF reporter robust z-score 1.54. Depletion of DSG1 gave: TNF reporter robust z-score 2.71. With knock-down of EXOC3, the record shows TNF reporter robust z-score -0.65. For EXOC3, the entry reads TNF reporter robust z-score -0.69. Depletion of EXOC3 came out at: TNF reporter robust z-score 0.19. After knock-down of EXOC3, the record shows TNF reporter robust z-score -0.06.

Depletion of SFT2D1 came out at: TNF reporter robust z-score 1.73. Knock-down of SFT2D1 resulted in: TNF reporter robust z-score 0.01. SFT2D1 gave TNF reporter robust z-score 0.81. For SFT2D1 the deposit lists TNF reporter robust z-score -0.08. Silencing of CST7 gave: TNF reporter robust z-score -0.02. Against CST7 the deposit lists TNF reporter robust z-score -0.05.

After knock-down of CST7, the record shows TNF reporter robust z-score -0.13. With knock-down of NANOS1, the record shows TNF reporter robust z-score -0.76. After knock-down of NANOS1, the record shows TNF reporter robust z-score 0.33. With knock-down of NANOS1, the record shows TNF reporter robust z-score -0.43. After knock-down of NANOS1, the record shows TNF reporter robust z-score 0.92. NOS1AP scored TNF reporter robust z-score 3.25 (active).

After knock-down of NOS1AP, the screen gave TNF reporter robust z-score 0.53. Knock-down of NOS1AP came out at: TNF reporter robust z-score -0.99. After knock-down of NOS1AP, the record shows TNF reporter robust z-score 0.42. NSMCE2 showed TNF reporter robust z-score 0.98. Against NSMCE2, the values are TNF reporter robust z-score -1.07. With knock-down of NSMCE2, the screen gave TNF reporter robust z-score 0.2.

NSMCE2 showed TNF reporter robust z-score -0.26. Against UBQLN4 the deposit lists TNF reporter robust z-score -0.87. With knock-down of UBQLN4 the results were TNF reporter robust z-score -1.14. For UBQLN4, the values are TNF reporter robust z-score -1.28. For UBQLN4, the entry reads TNF reporter robust z-score 0.03. For OPN4, the values are TNF reporter robust z-score 0.69.

OPN4 showed TNF reporter robust z-score -0.45. OPN4 showed TNF reporter robust z-score 0.65. After knock-down of OPN4, the record shows TNF reporter robust z-score 0.94. RAB29 gave TNF reporter robust z-score -0.84. After knock-down of RAB29, the screen gave TNF reporter robust z-score -0.83. For RAB29 the deposit lists TNF reporter robust z-score -0.89.

RAB29 gave TNF reporter robust z-score -0.99. DNASE2 gave TNF reporter robust z-score -0.2. DNASE2 gave TNF reporter robust z-score 0.52. After knock-down of DNASE2, the screen gave TNF reporter robust z-score 0.99. Depletion of DNASE2 resulted in: TNF reporter robust z-score 1.54. After knock-down of GOLGA8G, the record shows TNF reporter robust z-score -0.52.

For GOLGA8G, the entry reads TNF reporter robust z-score 0.16. Knock-down of GOLGA8G gave: TNF reporter robust z-score 0. Against GOLGA8G, the entry reads TNF reporter robust z-score 1.23. Against CDC42EP4, the entry reads TNF reporter robust z-score -0.27. Against CDC42EP4 the deposit lists TNF reporter robust z-score -0.37. After knock-down of CDC42EP4 the results were TNF reporter robust z-score 0.08.

After knock-down of CDC42EP4 the results were TNF reporter robust z-score 0.18. With knock-down of MON1A the results were TNF reporter robust z-score 0.93. Against MON1A, the entry reads TNF reporter robust z-score 2.1. Depletion of MON1A resulted in: TNF reporter robust z-score 2.97 (active). For MON1A, the entry reads TNF reporter robust z-score 1.05. Against COL13A1, the values are TNF reporter robust z-score -0.09.

COL13A1 gave TNF reporter robust z-score -0.63. After knock-down of COL13A1, the record shows TNF reporter robust z-score -0.65. COL13A1 gave TNF reporter robust z-score 0.06.
